# These are yes or no findings as the source states them, for the method shown. In cells and extracts the contact can be indirect. Here binding means that the protein was enriched with, or labelled near, the bait; the list need not be complete. For some assays here: No binding means not detected with the bait. Where a sequence is shown, tags or fusion partners need not be part of it.
# By UniProt entry, the sequences of proteins in these tests, tags left out. Residues count along the entry.
# UniProt Q61102, residues 23-752: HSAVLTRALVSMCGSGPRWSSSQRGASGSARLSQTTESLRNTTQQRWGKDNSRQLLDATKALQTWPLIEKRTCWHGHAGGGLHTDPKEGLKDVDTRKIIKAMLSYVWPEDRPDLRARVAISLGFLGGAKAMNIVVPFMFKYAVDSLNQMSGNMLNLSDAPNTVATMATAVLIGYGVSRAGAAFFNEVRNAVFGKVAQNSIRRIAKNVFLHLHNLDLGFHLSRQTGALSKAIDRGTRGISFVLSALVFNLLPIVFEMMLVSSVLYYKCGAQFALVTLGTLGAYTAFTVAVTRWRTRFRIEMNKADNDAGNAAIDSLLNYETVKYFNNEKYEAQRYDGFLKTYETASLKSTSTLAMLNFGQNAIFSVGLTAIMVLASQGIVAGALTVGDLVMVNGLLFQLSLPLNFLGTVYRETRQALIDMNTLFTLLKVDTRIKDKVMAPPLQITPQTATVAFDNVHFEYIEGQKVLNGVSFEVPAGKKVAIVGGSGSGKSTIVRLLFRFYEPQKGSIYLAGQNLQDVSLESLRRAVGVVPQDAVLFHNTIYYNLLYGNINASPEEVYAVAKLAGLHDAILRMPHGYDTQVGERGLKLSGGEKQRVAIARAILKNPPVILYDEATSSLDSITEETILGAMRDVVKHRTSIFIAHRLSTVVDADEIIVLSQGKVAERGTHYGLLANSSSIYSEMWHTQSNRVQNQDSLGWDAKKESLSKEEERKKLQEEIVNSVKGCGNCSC
# T1: FLAG-FECH (human ferrochelatase, wild type) (human) (UniProt P22830)
# T1 sequence: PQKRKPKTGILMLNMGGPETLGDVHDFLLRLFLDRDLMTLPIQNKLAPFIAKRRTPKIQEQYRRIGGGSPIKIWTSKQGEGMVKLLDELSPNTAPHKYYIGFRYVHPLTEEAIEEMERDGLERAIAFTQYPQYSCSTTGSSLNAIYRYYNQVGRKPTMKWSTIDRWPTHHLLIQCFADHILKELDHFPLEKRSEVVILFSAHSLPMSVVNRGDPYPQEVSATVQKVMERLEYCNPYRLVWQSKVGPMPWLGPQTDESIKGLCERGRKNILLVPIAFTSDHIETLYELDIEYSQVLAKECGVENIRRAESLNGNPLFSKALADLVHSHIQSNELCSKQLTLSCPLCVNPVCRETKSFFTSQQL
# T2: FLAG-FECH E343K variant (human ferrochelatase) (human) (UniProt P22830)
# T2 sequence: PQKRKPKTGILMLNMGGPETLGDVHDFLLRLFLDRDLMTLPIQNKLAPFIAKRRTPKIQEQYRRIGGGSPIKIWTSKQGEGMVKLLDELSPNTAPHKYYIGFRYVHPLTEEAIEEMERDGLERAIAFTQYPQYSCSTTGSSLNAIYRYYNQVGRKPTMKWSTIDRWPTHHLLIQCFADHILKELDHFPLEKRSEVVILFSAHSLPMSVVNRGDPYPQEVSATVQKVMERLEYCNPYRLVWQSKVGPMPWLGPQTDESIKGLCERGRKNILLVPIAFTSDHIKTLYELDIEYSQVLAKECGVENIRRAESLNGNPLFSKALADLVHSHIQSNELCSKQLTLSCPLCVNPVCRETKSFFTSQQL
# T3: FLAG-FECH M76H variant (human ferrochelatase) (human) (UniProt P22830)
# T3 sequence: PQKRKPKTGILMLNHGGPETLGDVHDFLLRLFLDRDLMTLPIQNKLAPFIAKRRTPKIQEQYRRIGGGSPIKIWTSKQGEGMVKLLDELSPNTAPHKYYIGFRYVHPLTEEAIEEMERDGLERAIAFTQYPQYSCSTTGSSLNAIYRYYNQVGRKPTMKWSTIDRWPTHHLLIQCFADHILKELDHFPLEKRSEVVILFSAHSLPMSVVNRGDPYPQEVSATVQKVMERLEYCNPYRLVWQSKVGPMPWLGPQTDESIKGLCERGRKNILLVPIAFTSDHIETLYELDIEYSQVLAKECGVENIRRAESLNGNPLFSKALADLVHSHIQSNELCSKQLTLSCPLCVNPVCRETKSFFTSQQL
# T4: FLAG-PPOX (human protoporphyrinogen oxidase, carboxy terminal FLAG) (human) (UniProt P50336)
# T4 sequence: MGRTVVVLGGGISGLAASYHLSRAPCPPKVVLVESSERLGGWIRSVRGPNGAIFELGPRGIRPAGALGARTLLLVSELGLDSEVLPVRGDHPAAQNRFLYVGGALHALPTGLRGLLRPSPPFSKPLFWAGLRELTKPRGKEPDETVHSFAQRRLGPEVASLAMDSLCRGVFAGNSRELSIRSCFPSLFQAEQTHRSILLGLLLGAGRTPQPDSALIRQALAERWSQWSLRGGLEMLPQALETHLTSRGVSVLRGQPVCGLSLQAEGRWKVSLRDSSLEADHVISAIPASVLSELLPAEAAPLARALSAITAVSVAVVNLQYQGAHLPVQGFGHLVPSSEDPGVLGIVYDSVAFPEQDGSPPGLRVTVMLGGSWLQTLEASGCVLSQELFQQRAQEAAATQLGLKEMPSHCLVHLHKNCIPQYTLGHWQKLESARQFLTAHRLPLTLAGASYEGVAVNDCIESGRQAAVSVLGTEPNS
# T5: FLAG-HMBS (human hydroxymethylbilane synthase, amino terminal FLAG) (human) (UniProt P08397)
# T5 sequence: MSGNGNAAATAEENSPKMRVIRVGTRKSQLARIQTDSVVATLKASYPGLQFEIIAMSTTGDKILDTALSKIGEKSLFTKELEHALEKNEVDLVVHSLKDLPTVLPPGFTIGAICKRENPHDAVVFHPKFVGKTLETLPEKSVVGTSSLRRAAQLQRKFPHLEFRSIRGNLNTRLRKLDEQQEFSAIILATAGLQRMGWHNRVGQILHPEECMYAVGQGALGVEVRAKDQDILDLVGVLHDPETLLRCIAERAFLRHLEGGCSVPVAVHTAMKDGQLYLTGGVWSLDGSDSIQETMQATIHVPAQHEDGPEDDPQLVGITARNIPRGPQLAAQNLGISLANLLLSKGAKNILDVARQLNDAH
# T6: FLAG-PBGS (human porphobilinogen synthase, amino terminal FLAG) (human) (UniProt P13716)
# T6 sequence: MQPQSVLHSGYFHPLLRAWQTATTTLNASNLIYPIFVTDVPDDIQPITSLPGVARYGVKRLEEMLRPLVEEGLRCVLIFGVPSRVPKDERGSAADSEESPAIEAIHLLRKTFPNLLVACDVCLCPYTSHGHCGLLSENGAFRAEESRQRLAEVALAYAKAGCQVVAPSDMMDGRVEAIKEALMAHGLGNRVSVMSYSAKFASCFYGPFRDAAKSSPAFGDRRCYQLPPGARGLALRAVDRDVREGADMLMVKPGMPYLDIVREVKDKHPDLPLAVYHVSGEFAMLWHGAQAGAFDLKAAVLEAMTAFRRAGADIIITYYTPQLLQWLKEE
# T7: FLAG-UROD (human uroporphyrinogen III decarboxylase, amino terminal FLAG) (human) (UniProt P06132)
# T7 sequence: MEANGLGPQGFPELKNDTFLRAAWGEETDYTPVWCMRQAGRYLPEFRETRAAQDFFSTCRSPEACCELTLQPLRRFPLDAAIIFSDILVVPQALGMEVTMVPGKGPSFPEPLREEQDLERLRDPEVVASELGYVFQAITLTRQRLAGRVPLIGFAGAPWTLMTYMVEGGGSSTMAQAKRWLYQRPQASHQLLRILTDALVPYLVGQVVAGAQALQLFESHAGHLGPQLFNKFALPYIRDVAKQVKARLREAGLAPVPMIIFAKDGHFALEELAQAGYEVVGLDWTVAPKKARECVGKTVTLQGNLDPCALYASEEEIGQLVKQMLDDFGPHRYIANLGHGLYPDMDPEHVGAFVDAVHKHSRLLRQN
# T8: FLAG-UROS (human uroporphyrinogen III synthase, amino terminal FLAG) (human) (UniProt P10746)
# T8 sequence: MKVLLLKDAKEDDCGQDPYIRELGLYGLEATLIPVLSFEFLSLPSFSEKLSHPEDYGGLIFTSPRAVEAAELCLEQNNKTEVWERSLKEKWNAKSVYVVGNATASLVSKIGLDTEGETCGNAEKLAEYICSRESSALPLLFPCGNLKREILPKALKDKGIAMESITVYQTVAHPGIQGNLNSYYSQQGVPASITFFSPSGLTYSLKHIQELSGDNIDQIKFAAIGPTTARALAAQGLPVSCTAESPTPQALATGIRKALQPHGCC
# Key:
# [1] = biological target: T1, FLAG-FECH (human ferrochelatase, wild type) (human); assay: affinity purification with mass spectrometry; FLAG-tagged human bait stably expressed in MEL cells induced 72 h with 1.5% DMSO; isolated mitochondria lysed in 50 mM Tris-HCl pH 7.5, 1 mM EDTA, 150 mM NaCl, 1% Nonidet P-40; anti-FLAG agarose overnight at 4°C, washes with 0.1% Nonidet P-40, elution with FLAG peptide, MudPIT MS; empty vector as control
# [2] = biological target: T2, FLAG-FECH E343K variant (human ferrochelatase) (human); assay: as above
# [3] = biological target: T3, FLAG-FECH M76H variant (human ferrochelatase) (human); assay: as above
# [4] = biological target: T4, FLAG-PPOX (human protoporphyrinogen oxidase, carboxy terminal FLAG) (human); assay: as above
# [5] = biological target: T5, FLAG-HMBS (human hydroxymethylbilane synthase, amino terminal FLAG) (human); assay: affinity purification with mass spectrometry; FLAG-tagged human bait stably expressed in MEL cells induced 72 h with 1.5% DMSO; cytosolic fraction pre-cleared, anti-FLAG agarose overnight at 4°C, buffers (50 mM Tris-HCl pH 7.5, 1 mM EDTA, 150 mM NaCl) without detergent, elution with FLAG peptide, MudPIT MS; empty vector as control
# [6] = biological target: T6, FLAG-PBGS (human porphobilinogen synthase, amino terminal FLAG) (human); assay: as above
# [7] = biological target: T7, FLAG-UROD (human uroporphyrinogen III decarboxylase, amino terminal FLAG) (human); assay: as above
# [8] = biological target: T8, FLAG-UROS (human uroporphyrinogen III synthase, amino terminal FLAG) (human); assay: as above
Molecule,binding [1],binding [2],binding [3],binding [4],binding [5],binding [6],binding [7],binding [8]
mouse abcb7 (from UniProt Q61102 23-752),binds,binds,binds,binds,–,–,–,–
"mouse hydroxymethylbilane synthase (enzyme, UniProt P22907 1-361) MSGNGGAATTAEENGSKMRVIRVGTRKSQLARIQTDTVVAMLKALYPGIQFEIIAMSTTGDKILDTALSKIGEKSLFTKELENALEKNEVDLVVHSLKDVPTILPPGFTIGAICKRENPCDAVVFHPKFIGKTLETLPEKSAVGTSSLRRVAQLQRKFPHLEFKSIRGNLNTRLRKLDELQEFSAIVLAVAGLQRMGWQNRVGQILHPEECMYAVGQGALAVEVRAKDQDILDLVSVLHDPETLLRCIAERAFLRHLEGGCSVPVAVHTVMKDGQLYLTGGVWSLDGSDSMQETMQATIQVPVQQEDGPEDDPQLVGITARNIPRGAQLAAENLGISLASLLLNKGAKNILDVARQLNDVR",–,–,–,–,binds,no binding,no binding,no binding
"mouse porphobilinogen synthase (enzyme, UniProt P10518 1-330) MHHQSVLHSGYFHPLLRSWQTAASTVSASNLIYPIFVTDVPDDVQPIASLPGVARYGVNQLEEMLRPLVEAGLRCVLIFGVPSRVPKDEQGSAADSEDSPTIEAVRLLRKTFPSLLVACDVCLCPYTSHGHCGLLSENGAFLAEESRQRLAEVALAYAKAGCQVVAPSDMMDGRVEAIKAALLKHGLGNRVSVMSYSAKFASCFYGPFRDAAQSSPAFGDRRCYQLPPGARGLALRAVARDIQEGADMLMVKPGLPYLDMVREVKDKHPELPLAVYQVSGEFAMLWHGAQAGAFDLRTAVLETMTAFRRAGADIIITYFAPQLLKWLKEE",–,–,–,–,no binding,binds,no binding,no binding

# Second part, the molecule after the results:
binding [1],binding [2],binding [3],binding [4],binding [5],binding [6],binding [7],binding [8],Molecule
–,–,–,–,no binding,no binding,binds,no binding,"mouse uroporphyrinogen III decarboxylase (enzyme, UniProt P70697 1-367) MEANGFGLQNFPELKNDTFLRAAWGEETDYTPVWCMRQAGRYLPEFRETRAAQDFFSTCRSPEACCELTLQPLRRFPLDAAIIFSDILVVPQALGMEVTMVPGKGPSFPEPLREERDLERLRDPAAAASELGYVFQAITLTRQRLAGRVPLIGFAGAPWTLMTYMVEGGSSSTMAQAKRWLYQRPQASHKLLGILTDVLVPYLIGQVAAGAQALQLFESHAGHLGTELFSKFALPYIRDVAKRVKAGLQKAGLAPVPMIIFAKDGHFALEELAQAGYEVVGLDWTVAPKKARERVGKAVTLQGNLDPCALYASEEEIGRLVQQMLDDFGPQRYIANLGHGLYPDMDPERVGAFVDAVHKHSRLLRQN"
–,–,–,–,no binding,no binding,no binding,no binding,"mouse uroporphyrinogen III synthase (enzyme, UniProt P51163 1-265) MKVLLLKDAKEDDSGLDPYIQELRLCGLEATLIPVLSFEFMSLPSLSEKLSHPEGFGGLIFTSPRAVEAVKLCLEKDNKTEAWEKSLKDRWNAKSVYVVGSATASLVNKIGLDAEGAGSGNAEKLAEYICSKPSSELPLLFPCGTIKGDTLPKMLKDKGIPMESMHVYQTVPHPGIQGSLKSYYEDQGIPASITFFSPSGLKYSLEYIQALSGSSFDQIKFIAIGPSTTRAMAAKGLPVSCTAESPTPQALAAGIRNVLKPNHCC"

# — publication PMC4545792
